# Assay results reported in patent US11912650B2, “Bakuchiol derivatives, pharmaceutically acceptable salts thereof, and preparation method and use of the same” (priority 2020, dated 2024).
# Some entries share one result that the patent states for a list of compounds.
# Columns and labels:
# [1] = system: rabbit red blood cells; assay: Hemolytic activity assay; assay type: cell-based; conditions: 37° C., 1 hour
# Protocol: Hemolytic activity assay. Rabbit red blood cells were centrifuged at 2500 rpm for 3 minutes and then washed twice with PBS. Subsequently, a 8% (v/v) cell suspension was prepared by resuspending the rabbit red blood cells with PBS. A sample was first dissolved in DMSO or PBS (a final concentration of DMSO was ≤0.5%), and then diluted with PBS to prepare two-fold gradient dilutions (400 μg/mL to 3.125 μg/mL). The rabbit red blood cell suspension ([…]) was mixed with the two-fold gradient dilutions ([…]) of the sample. Then, the mixture was added to a sterile 96-well plate, incubated at 37° C. for 1 hour, and then centrifuged at 2500 rpm for 5 minutes. Among them, test systems for compounds 38, 44-45, 58-61 and 63-64 contained 0.05% of Tween 80. The supernatant (100 μL) was transferred to a new 96-well plate. Absorbance at 576 nm was measured using a Biotek multifunctional microplate reader. The positive control group was treated with a 2% Triton X-100 solution, and the negative control group was treated with PBS or 0.5% DMSO. The hemolytic activity was calculated by the following equation: % hemolytic activity=[(Abssample−Absnegative control)/(Abspositive control−Absnegative control)]×100. All experiments were carried out in at least two duplicates, and biological repeatability could be achieved.
# [2] = system: mouse corneal cells CM120; assay: Toxicity to mammalian cells (CCK-8); assay type: cell-based; conditions: 100 μg/mL, 24 h
SMILES,HC50 (concentration necessary to lyse 50% rabbit red blood cells) [1],"cell survival rate, mouse corneal cells [2]"
C=C[C@](C)(/C=C/c1ccc(OCC(=O)N[C@@H](CCCNC(=N)N)C(=O)N[C@@H](CCCNC(=N)N)C(=O)N[C@@H](CCCNC(=N)N)C(=O)OC)cc1)CCC=C(C)C [Compound 45],more than 400 μg/mL,–
C=C[C@](C)(/C=C/c1ccc(OCC(=O)N[C@@H](CCCNC(=N)N)C(=O)N[C@@H](CCCNC(=N)N)C(=O)N[C@@H](CCCNC(=N)N)C(N)=O)cc1)CCC=C(C)C [Compound 58],more than 400 μg/mL,–
C=C[C@](C)(/C=C/c1ccc(OCC(=O)N[C@@H](CCCNC(=N)N)C(=O)N[C@@H](CCCNC(=N)N)C(=O)OC)cc1)CCC=C(C)C [Compound 44],–,more than 900%
C=C[C@](C)(/C=C/c1ccc(OCC(=O)N[C@H](CCCNC(=N)N)C(=O)N2CCN(c3ccc(N4CC(CNC(C)=O)OC4=O)cc3F)CC2)cc1)CCC=C(C)C (some centres unmarked) [Compound 53],more than 400 μg/mL,–
C=C[C@](C)(/C=C/c1ccc(OCC(=O)N[C@@H](CCCNC(=N)N)C(=O)N[C@@H](CCCNC(=N)N)C(=O)N[C@@H](CCCNC(=N)N)C(=O)N2CCN(c3ccc(N4C[C@H](CNC(C)=O)OC4=O)cc3F)CC2)cc1)CCC=C(C)C [Compound 63],more than 400 μg/mL,–
